Laboratory results from paper PMC8295330.
No constants are given. Whether binding was seen depends on the method and setting. Binding seen in cells or lysates may run through a third protein. Some entries that bind do so weakly or less than the wild type.

Target: T1, PPM1G (Protein phosphatase, Mg2+/Mn2+ dependent 1 G) (human (endogenous in Hep3B)) (UniProt O15355)
T1 sequence: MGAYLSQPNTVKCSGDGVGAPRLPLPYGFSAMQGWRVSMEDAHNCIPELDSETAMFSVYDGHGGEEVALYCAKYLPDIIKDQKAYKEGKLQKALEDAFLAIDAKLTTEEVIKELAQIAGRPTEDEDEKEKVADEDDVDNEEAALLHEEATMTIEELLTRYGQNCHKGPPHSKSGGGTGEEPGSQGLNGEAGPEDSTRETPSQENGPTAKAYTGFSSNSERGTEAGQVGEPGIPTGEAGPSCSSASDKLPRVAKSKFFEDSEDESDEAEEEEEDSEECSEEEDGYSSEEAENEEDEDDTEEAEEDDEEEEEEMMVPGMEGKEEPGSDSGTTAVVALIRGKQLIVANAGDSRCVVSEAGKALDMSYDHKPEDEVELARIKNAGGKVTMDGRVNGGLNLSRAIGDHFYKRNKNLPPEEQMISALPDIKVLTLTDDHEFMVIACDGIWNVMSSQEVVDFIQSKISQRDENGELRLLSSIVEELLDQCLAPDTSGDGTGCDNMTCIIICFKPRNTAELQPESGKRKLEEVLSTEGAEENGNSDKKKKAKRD
Assay: co-IP; antibodies against PPM1G or SRSF3 for immunoprecipitation from cell lysate (Hep3B per the title of Fig. 5), IgG as negative control, about 2% input; lysis with 150 mM NaCl, 1% Triton X-100, washes with 350 mM NaCl; western blot

binding: binds
B1: SRSF3 (protein, UniProt P84103 1-164)
chain: MHRDSCPLDCKVYVGNLGNNGNKTELERAFGYYGPLRSVWVARNPPGFAFVEFEDPRDAADAVRELDGRTLCGCRVRVELSNGEKRSRNRGPPPSWGRRPRDDYRRRSPPPRRRSPRRRSFSRSRSRSLSRDRRRERSLSRERNHKPSRSFSRSRSRSRSNERK
